Assay results taken from article PMC6993207.
The exact form of at least one protein or probe is not confirmed.

Tested on: FOXE1
Test: EMSA
Conditions: self-competition with 100-fold excess unlabeled Oligo R tested (lane 3); 40 mM Hepes pH 7.9, 75 mM KCl, 0.2 mM EDTA, 0.5 mM DTT, 150 ng/uL poly(dI-dC), 5% Ficoll, room temperature, 30 min; 5% PAGE in 0.5x TBE; protein translated in vitro; label: 32P (T4 PNK)

“ATTCAAATAAACACTTGCATTTTA (double strand) [Oligo FOXE1 (ZEB1 promoter probe, Oligo R)]”: binds.
